According to PubChem BioAssay AID906 (National Center for Advancing Translational Sciences (NCATS), 2007):
The shares of active, inactive and inconclusive entries below differ from those in the screen. Potencies beside an inconclusive call are fits to weak or partial responses and may not hold up. Calls of active or inactive are those of the source. Calls follow the shape of the dose curve; as a rule, active = well fitted inhibition curve with a large enough effect; inconclusive = small, poorly fitted or top-dose-only effect, or another doubt; inactive = no such curve, though single readings can be large or run the other way.

Experiment: Cell Viability - CRE-beta lactamase CHO cell - 40 hr assay
Settings: CRE-bla CHO viability, ATP luminescence; max response: stronger effect = lower value
Excerpt: NIH Chemical Genomics Center [NCGC] NIH Molecular Libraries Screening Centers Network [MLSCN] National Institutes of Environmental Health Sciences [NIEHS] National Toxicology Program [NTP] MLSCN Grant: 1X01MH079867-01 Assay Provider: Marshall W. Nirenberg, U.S. National Heart, Lung and Blood Institute NCGC Assay Overview: We have developed a 1536-well cell-based assay for quantitative high throughput screening (qHTS) against a number of cell lines to determine in vitro cytotoxicity of small molecules. This particular assay uses CRE-bla CHO cell line from Invitrogen.
NCGC Assay Protocol Summary: The CellTiter-Glo luminescent cell viability assay (Promega) is a homogeneous method to measure the number of viable cells in culture. The end point readout of this assay is based on quantitation of intracellular ATP, an indicator of metabolic activity, using the luciferase reaction. Luciferase catalyzes the oxidation of beetle Luciferin to oxyluciferin and light in the presence of ATP. The luminescent signal is proportional to amount of ATP present. Using the CellTiter-Glo luminescent cell viability assay, the amount of cellular ATP was measured in the CRE-bla CHO cell line with complete culture medium following compound treatment for 40 hours. The assay was performed in opaque white Kalypsys 1536-well plates. In the screen, tamoxifen was used as positive control. The selected compounds were measured for their ability to cause acute toxicity in the cell line, as reflected by a decrease in intracellular ATP levels, in a concentration-dependent manner. Data were normalized to the controls for basal activity (DMSO only) and 100% inhibition (100 uM tamoxifen). AC50 values were determined from concentration-response data modeled with the standard Hill equation. NCGC Assay Protocol Summary 1. Reagent; 5 uL; 2000 CHO cells/well 2. Time; overnight; 37 °C incubation 3. Compounds; 23 nL; 5.9 nM to 46 uM 4. Controls; 23 nL; Tamoxifen 4.5 nM to 92 uM 5. Time; 40 hr; 37 °C incubation 6. Reagent; 5 uL; CellTiter Glo reagent 7. Time; 20 min; Room Temperature 8. Detection; Luminescence; Viewlux plate reader Keywords: cell viability, cytotoxicity, CHO cell line, luminescence, MLSMR, MLSCN, NIH Roadmap, qHTS, NCGC

Question: With Cc1nn(-c2ccccc2)c2sc(C(=O)N3CCCCC3)cc12 as the compound, how does the Potency read?
Answer: The Potency was inconclusive: 15.8 µM [inhibitor, partial curve].

Question: With CCCN(CCC)CCNC(=O)c1cc2c(=O)n(C)c3ccccc3c2n1C as the compound, how does the max response read?
Answer: The max response was inactive: -11.4%.

Question: Which max response does the source give for CCCc1nc2oc3c(NCc4ccccn4)ncnc3c2c2c1COC(C)(C)C2 here?
Answer: Its max response is inactive: -15.9%.

Question: For CCOC(=O)c1cnc2c(cnn2CC)c1NN=C(C)C, which Potency is on record?
Answer: The Potency was inconclusive: 10 µM [inhibitor, full curve].

Question: With Cc1cc(-c2nnc3n2N=C(c2ccc(-c4ccccc4)cc2)CS3)n[nH]1 as the compound, how does the Potency read?
Answer: Its Potency is inconclusive: 31.6 µM [inhibitor, partial curve].

Question: For Clc1ccc(C2=Nn3c(nnc3-c3n[nH]c4c3CCC4)SC2)cc1Cl, which Potency is on record?
Answer: The Potency was active: 15.8 µM.

Question: With COc1cc(NC(=O)c2cccc3c2C(=O)N(Cc2cccnc2)C3)cc(OC)c1OC as the compound, how does the Potency read?
Answer: Its Potency is inconclusive: 12.6 µM [inhibitor, partial curve].

Question: Which Potency does the source give for CSc1nc2ccc(Nc3nc(N4CCOCC4)nc(N4CCOCC4)n3)cc2s1 here?
Answer: The Potency was inconclusive: 25.1 µM [inhibitor, single point].

Question: With CC[C@]1(O)C[C@@H]2CN(CCc3c([nH]c4ccccc34)[C@](C(=O)OC)(c3cc4c(cc3OC)N(C)[C@H]3[C@](O)(C(=O)OC)[C@@H](C(=O)OC)[C@@]5(CC)C=CCN6CC[C@@]43[C@@H]65)C2)C1 as the compound, how does the Potency read?
Answer: Its Potency is inconclusive: 7.94 µM [inhibitor, partial curve].

Question: With COc1cc2c(cc1OC)-c1c(OC)c(OC)cc3ccnc(c13)C2=O as the compound, how does the Potency read?
Answer: Its Potency is inconclusive: 3.16 µM [inhibitor, full curve].

Question: For CCCN1Cc2cccc(C(=O)Nc3ccc(N4CCN(CC)CC4)cc3)c2C1=O, which max response is on record?
Answer: The max response was inactive: -5.93%.

Question: Which max response does the source give for Cc1cc(N2CCN(S(=O)(=O)c3ccc4c(c3)OCCO4)CC2)n2ncnc2n1 here?
Answer: The max response was inactive: -14.9%.

Question: For Cc1nn(-c2ccccc2)c2sc(C(=O)N(CC(=O)NC(C)(C)C)Cc3ccco3)cc12, which Potency is on record?
Answer: Its Potency is inconclusive: 25.1 µM [inhibitor, partial curve].

Question: Which max response does the source give for CCNc1nc(NC(C)(C)C)nc(N(C#N)CC)n1 here?
Answer: Its max response is inactive: -25%.

Question: Which Potency does the source give for COc1cc(-c2cc(=O)c3ccccc3o2)ccc1O here?
Answer: The Potency was inconclusive: 25.1 µM [inhibitor, partial curve].

Question: Which Potency does the source give for CCn1c2ccccc2c2nnc(SCc3cc(=O)n4ccsc4n3)nc21 here?
Answer: Its Potency is inconclusive: 7.94 µM [inhibitor, full curve, poor fit].

Question: For Cc1ccc2c(c1)c1nc3ccccc3nc1n2CCN1CCOCC1, which Potency is on record?
Answer: Its Potency is inconclusive: 20 µM [inhibitor, partial curve].

Question: Which max response does the source give for Nc1nc(CSCc2ccccc2)nc(N2CCOCC2)n1 here?
Answer: The max response was inactive: -11.9%.

Question: Which Potency does the source give for COc1nc(Nc2nc3ccccc3c(=O)[nH]2)nc2ccc(C)cc12 here?
Answer: The Potency was active: 3.98 µM.

Question: Which Potency does the source give for CCCCNc1c(C(=O)OCC)c(C)nc2c1cnn2CC here?
Answer: Its Potency is inconclusive: 12.6 µM [inhibitor, partial curve].

Question: For Cn1nc(-c2ccc(N3CCCCC3)c(NC(=O)c3ccco3)c2)c2ccccc2c1=O, which Potency is on record?
Answer: The Potency was inconclusive: 15.8 µM [inhibitor, partial curve].

Question: Which Potency does the source give for CCn1c2ccccc2c2cc(Nc3cc(C)nc4ncnn34)ccc21 here?
Answer: Its Potency is inconclusive: 15.8 µM [inhibitor, partial curve].

Question: Which Potency does the source give for Cn1nc(-c2ccc(N3CCOCC3)c(NS(=O)(=O)c3ccccc3)c2)c2ccccc2c1=O here?
Answer: Its Potency is inconclusive: 12.6 µM [inhibitor, partial curve].

Question: Which Potency does the source give for c1ccc2[nH]c(CSc3ncnc4c3oc3ccccc34)nc2c1 here?
Answer: The Potency was inconclusive: 12.6 µM [inhibitor, partial curve].

Question: With CSc1nnc2c3ccccc3n(CCc3ccccc3)c2n1 as the compound, how does the Potency read?
Answer: Its Potency is inconclusive: 12.6 µM [inhibitor, full curve].

Question: With CC[C@]1(O)C[C@@H]2CN(CCc3c([nH]c4ccccc34)[C@](C(=O)OC)(c3cc4c(cc3OC)N(C=O)[C@H]3[C@@](O)(C(=O)OC)[C@H](C(=O)OC)[C@@]5(CC)C=CCN6CC[C@]43[C@H]65)C2)C1 as the compound, how does the Potency read?
Answer: The Potency was inconclusive: 6.31 µM [inhibitor, partial curve].

Question: Which Potency does the source give for Cc1nn(-c2ccccc2)c2sc(C(=O)N(Cc3ccco3)C(C)C(=O)NC(C)(C)C)cc12 (stereo not given) here?
Answer: Its Potency is active: 12.6 µM.

Question: Which max response does the source give for Cc1nc(SCC(=O)Nc2ccc3c(c2)OCCO3)c2oc3ccccc3c2n1 here?
Answer: The max response was inactive: -20.4%.

Question: Which Potency does the source give for C=CCn1c(SCC(=O)Nc2sccc2C(N)=O)nc2sc(C)c(C)c2c1=O here?
Answer: Its Potency is inconclusive: 7.94 µM [inhibitor, full curve].

Question: Which max response does the source give for COc1cc2c(c(OC)c1OC)-c1ccc(OC)c(=O)cc1[C@@H](NC(C)=O)CC2 here?
Answer: Its max response is inactive: -10.9%.

Question: For CCCN(CCC)c1nc2ccccc2n2c(C)nnc12, which max response is on record?
Answer: Its max response is inactive: -21.1%.

Question: Which Potency does the source give for c1cnc(N2CCN(c3nc4ccccc4n4cnnc34)CC2)nc1 here?
Answer: The Potency was inconclusive: 15.8 µM [inhibitor, partial curve].

Question: With CCOC(=O)c1ccccc1NC(=O)c1cc(S(=O)(=O)N2CCOCC2)ccc1F as the compound, how does the max response read?
Answer: Its max response is inactive: -15.4%.

Question: Which Potency does the source give for CCN(CC)c1nc2ccccc2n2cnnc12 here?
Answer: Its Potency is inconclusive: 12.6 µM [inhibitor, partial curve].

Question: With CC(=O)N1CCN(c2ccc(Nc3nc(C)nc4c3oc3ccccc34)cc2)CC1 as the compound, how does the Potency read?
Answer: Its Potency is inconclusive: 31.6 µM [inhibitor, partial curve].

Question: For Cc1sc2nc(SCc3nc4ccccc4[nH]3)n(Cc3ccco3)c(=O)c2c1C, which Potency is on record?
Answer: The Potency was inconclusive: 12.6 µM [inhibitor, partial curve].

Question: For COc1cc(-c2nnc3sc(C4CCCCC4)nn23)cc(OC)c1OC, which Potency is on record?
Answer: Its Potency is inconclusive: 7.94 µM [inhibitor, full curve].

Question: With Nc1nc(CSc2n[nH]c(-c3ccccc3)n2)nc(Nc2ccccc2)n1 as the compound, how does the Potency read?
Answer: The Potency was inconclusive: 25.1 µM [inhibitor, partial curve].

Question: Which Potency does the source give for COc1ccc(Nc2nc(Nc3ccc(OC)cc3)nc(-n3[nH]c(=O)c(C)c3C)n2)cc1 here?
Answer: Its Potency is inconclusive: 12.6 µM [inhibitor, full curve].

Question: Which Potency does the source give for CCOc1ccc(-c2nnc3ccc(SCc4ccc(C(=O)OC)o4)nn23)cc1 here?
Answer: The Potency was inconclusive: 15.8 µM [inhibitor, partial curve].
